Assay results reported in patent US20180147161A1, “MULTIDRUG BRITTLE MATRIX COMPOSITIONS” (BOARD OF REGENTS, THE UNIVERSITY OF TEXAS SYSTEM, priority 2015, published 2018).
Read-outs that look alike come from different tables or passages of the source. At least one structure is not confirmed: it was looked up by name or label, or the drawing left a doubt.

How the values were obtained:
[1] = Particle size distribution by laser diffraction; format: physicochemical; settings: for Particle size D10 / Particle size D50 / Particle size D90: laser diffraction
Experimental: Measurement of particle size distributions of budesonide, tiotropium bromide and formoterol fumarate before and after jet milling were measured by laser diffraction (HELOS, Sympatec GmbH, Clausthal-Zellerfelg, Germany). A small amount of formoterol fumarate and Tiotropium bromide were separately dispersed in 10 mL 0.01% tween 80 mineral oil and a small amount of budesonide was dispersed in 10 mL 0.01% tween 80 in deionized water. The samples were sonicated for 5 minutes and diluted with enough solvent to produce light obscuration in the range of 15-20%. The sizes reported are average values of at least 3 measurements. The results are presented as D(x) and span, where X is the cumulative percentile of particles under the referred size (e.g. D(50) corresponds to the median diameter of the particles). Span is a measurement of particle size distribution calculated as [(D(90)−D(10)]/D(50).

[2] = BET specific surface area of triple therapy materials; format: physicochemical
Experimental: Powder porosity was determined through the measurement of the specific surface area (SSA) using a Monosorb MS-22 rapid surface area analyzer (Quantachrome Instruments, Boynton Beach, Fla.). The instrument uses a modified BET equation for SSA determination. Samples were degassed in a Thermoflow™ Degasser for at least 2 hours at 25° C. using 30% nitrogen in helium as the […].

Row | Compound | Span ([1]; [(D(90)−D(10)]/D(50))) | Span ([1]; [(D(90)−D(10)]/D(50)), listed as budesonide) | D50 ([1]; after jet milling) | Span ([1]; after jet milling) | Particle size D10 [1] | Particle size D50 [1] | Particle size D90 [1] | Particle size D50 ([1]; listed as budesonide) | SSA ± SD [2] | SSA ([2]; after jet milling) | SSA ± SD ([2]; listed as budesonide)
1 | CCCC1O[C@@H]2C[C@H]3[C@@H]4CCC5=CC(=O)C=C[C@]5(C)[C@H]4[C@@H](O)C[C@]3(C)[C@]2(C(=O)CO)O1 (stereo partly shown) [Budesonide] | 2.31 | 2.31 | 3.40±0.09 μm | 2.58 | 1.63 ± 1.25 μm | 22.11 ± 16.92 μm | 52.7 ± 2.42 μm | 22.11±16.92 μm | 3.05 ± 0.21 m^2/g | 2.75±0.13 m^2/g | 3.05±0.21 m^2/g
2 | CCCC1O[C@@H]2C[C@H]3[C@@H]4CCC5=CC(=O)C=C[C@]5(C)[C@H]4[C@@H](O)C[C@]3(C)[C@]2(C(=O)CO)O1 (stereo partly shown) [Jet milled budesonide, budesonide] | 2.58 |  |  |  | 0.91 ± 0.01 μm | 3.40 ± 0.09 μm | 9.7 ± 0.30 μm |  | 2.75 ± 0.13 m^2/g |  | 
